Data taken from PubChem BioAssay AID1053133, deposited by Broad Institute (2014).

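Plate-reader measure of the Venus reporter marking one vaccinia stage in infected cells (the cell line is not named here); read time unknown.
The test concentration is not given here.
Percent change in Venus reporter signal; lower (more negative) values mean stronger inhibition of that viral stage.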

Values are in %.
The controls that fix the scale are not given here.
Common to all entries: measured here: Venus reporter, other viral stage.
This is a side read-out of the assay, for part of the compounds, not drawn at random.

Compound	activity change (Venus) (%)
Cc1ccc(S(=O)(=O)N2CC[C@@H]3[C@H](CO)Nc4ccc(-c5cccc(C(=O)N(C)C)c5)cc4[C@@H]32)cc1	-55.09
Cc1ccc(S(=O)(=O)Nc2ccc3c(c2)C(=O)N([C@@H](C)CO)C[C@H](C)[C@@H](CN(C)C(=O)C2CCCCC2)OCCCC[C@H](C)O3)cc1	-54.1
O=C(C[C@H]1CC[C@H]2[C@@H](COC[C@@H](O)CN2S(=O)(=O)c2cccc(Cl)c2)O1)Nc1ccc(-c2ccccc2)cc1	-44.99
C[C@@H]1CN([C@@H](C)CO)C(=O)Cc2cc(NC(=O)Nc3ccccc3)ccc2O[C@@H]1CN(C)Cc1ccc(Oc2ccccc2)cc1	-53.31
C[C@@H]1CN([C@H](C)CO)C(=O)c2cc(NC(=O)c3ccccc3)ccc2O[C@@H](C)CCCCO[C@@H]1CN(C)C(=O)C1CCCCC1	-42.44
COC(=O)[C@@H]1[C@@H](CO)[C@@H]2Cn3c(ccc(/C=C/c4ccccc4)c3=O)[C@H]1N2CC1CCCC1	-43.38
C[C@@H]1CN([C@H](C)CO)C(=O)c2ccccc2-c2ccccc2CO[C@@H]1CN(C)Cc1cccc(F)c1	-46.01
C[C@H]1CN([C@@H](C)CO)C(=O)Cc2cc(NC(=O)NC3CCCCC3)ccc2O[C@H]1CN(C)S(=O)(=O)c1ccc(Cl)cc1	-39.89
C[C@H](CO)N1C[C@H](C)[C@@H](CN(C)S(=O)(=O)c2ccccc2)Oc2ccc(NC(=O)Nc3ccc(C(F)(F)F)cc3)cc2CC1=O	-28.29
O=C(CN1CCOCC1)N1CCCCN2[C@H](CO)[C@H](c3ccc(C#Cc4ccccc4)cc3)[C@@H]2C1	-37.37
C/C=C/c1ccc(C2[C@@H]3CN(S(=O)(=O)c4ccccc4)C[C@H]2N3)cc1 (stereo not given in full)	-36.47
C[C@H](O)C#Cc1ccc2c(c1)O[C@@H](CN(C)Cc1ccc(-c3ccccc3)cc1)[C@@H](C)CN([C@@H](C)CO)S2(=O)=O	-48.33
C[C@H](NC(=O)C[C@H]1CC[C@H]2[C@@H](COC[C@@H](O)CN2C(=O)Nc2cc(Cl)cc(Cl)c2)O1)c1ccccc1	-31.04
CCN1[C@@H]2Cn3c(ccc(/C=C/c4ccccc4)c3=O)[C@H]1[C@@H](C(=O)NC1Cc3ccccc3C1)[C@@H]2CO	-41.53
C[C@@H]1CCCCO[C@H](CN(C)Cc2ccc(C(F)(F)F)cc2)[C@@H](C)CN([C@H](C)CO)C(=O)c2cc(NC(=O)c3ccccc3)ccc2O1	-26.78
COc1ccccc1-c1ccc2c(c1)[C@H]1[C@H](CCN1Cc1ccccc1F)[C@@H](CO)N2	-19.86
C[C@@H]1CN([C@H](C)CO)C(=O)CCCn2nncc2CO[C@H]1CN(C)Cc1cccnc1	-24.33
C[C@H]1CCCCO[C@H](CN(C)Cc2ccncc2)[C@@H](C)CN([C@@H](C)CO)C(=O)c2cc(NC(=O)Nc3ccc(C(F)(F)F)cc3)ccc2O1	-36.1
O=C(Nc1ccccc1)N1CC(=O)N2[C@H](CO)[C@@H](c3ccc(C#CC4CCCCC4)cc3)[C@@H]2C1	-37.34
CCCc1cn(CC[C@H]2CC[C@@H](NS(=O)(=O)c3ccc(-c4ccccc4)cc3)[C@H](CO)O2)nn1	-32.12
COc1cccc(S(=O)(=O)N2CCCCN3[C@H](CO)[C@@H](c4ccc(C#CC5CC5)cc4)[C@H]3C2)c1	-50.75
C[C@@H]1CN([C@@H](C)CO)C(=O)Cc2cc(NC(=O)Nc3ccc4c(c3)OCO4)ccc2O[C@@H]1CN(C)Cc1ccc(Oc2ccccc2)cc1	-47.41
C[C@@H]1CN([C@@H](C)CO)S(=O)(=O)c2ccc(-c3ccncc3)cc2O[C@@H]1CN(C)Cc1ccccc1	-32.52
COc1ccc(NC(=O)N2CC(=O)N3[C@H](CO)[C@@H](c4ccc(-c5ccc(C)cc5)cc4)[C@H]3C2)cc1	-40.5
COc1ccc(S(=O)(=O)N(C)C[C@@H]2OCCCC[C@H](C)Oc3ccc(NS(=O)(=O)c4cccs4)cc3C(=O)N([C@H](C)CO)C[C@@H]2C)cc1	-37.11
CC(C)CC#Cc1ccc([C@@H]2[C@H]3CN(C(=O)Nc4cc(F)ccc4F)CC(=O)N3[C@H]2CO)cc1	-39.45
C[C@H]1CCCCO[C@H](CN(C)Cc2ccc(C(F)(F)F)cc2)[C@@H](C)CN([C@@H](C)CO)C(=O)c2cc(NS(=O)(=O)c3ccc(Cl)cc3)ccc2O1	-55.21
C[C@H]1CN([C@@H](C)CO)C(=O)c2cc(C#CCc3ccccc3)cnc2O[C@H]1CN(C)Cc1ccccc1	-28.37
N#C[C@H]1[C@H](c2ccccc2-c2ccc(F)cc2)[C@@H](CO)N1C(=O)Cc1ccccc1	-48.8
CC(C)CC#Cc1ccc2c(c1)O[C@@H](CN(C)C(=O)Cc1ccccc1)[C@@H](C)CN([C@H](C)CO)S2(=O)=O	-47.5
C[C@@H]1CCCCO[C@H](CN(C)Cc2ccccc2)[C@@H](C)CN([C@@H](C)CO)C(=O)c2cc(NC(=O)Nc3ccc4c(c3)OCO4)ccc2O1	-64.54
COc1ccc(NC(=O)N(C)C[C@@H]2OCc3ccccc3-c3c(n(C)c4ccccc34)C(=O)N([C@@H](C)CO)C[C@@H]2C)c(OC)c1	-32.21
CO[C@H]1CN(C)C(=O)c2ccc(NC(=O)C3CCC3)cc2OC[C@H](C)N(CC2CCCCC2)C[C@@H]1C	-30.94
C[C@@H]1CN([C@H](C)CO)C(=O)c2cccc(NC(=O)Nc3ccc(C(F)(F)F)cc3)c2O[C@H]1CN(C)C(=O)Nc1ccc(C(F)(F)F)cc1	-36.85
COc1ccccc1NC(=O)N1CC(=O)N2[C@H](CO)[C@@H](c3ccc(-c4ccc(F)cc4)cc3)[C@@H]2C1	-72.74
COc1ccc(S(=O)(=O)N(C)C[C@@H]2OCCCC[C@H](C)Oc3ccc(NC(=O)C4CCCCC4)cc3C(=O)N([C@@H](C)CO)C[C@@H]2C)cc1	-31.38
CCCN(C)C[C@@H]1OCCCC[C@H](C)Oc2ccc(NC(=O)Nc3ccc(F)cc3)cc2C(=O)N([C@@H](C)CO)C[C@@H]1C	-24.09
C[C@@H]1CN([C@@H](C)CO)C(=O)c2cccc(NC(=O)CCCCCC(=O)Nc3ccccc3N)c2O[C@H]1CN(C)CC1CC1	-66.07
COc1ccc(S(=O)(=O)Nc2ccc3c(c2)C(=O)N([C@H](C)CO)C[C@@H](C)[C@H](CN(C)Cc2ccc4c(c2)OCO4)OCCCC[C@H](C)O3)cc1	-56.3
COc1ccc(C#Cc2ccc([C@@H]3[C@H](CO)N4C(=O)CN(C(=O)c5cccnc5)C[C@@H]34)cc2)cc1	-32.88
N#C[C@H]1[C@H](c2ccc(-c3ccccc3F)cc2)[C@@H](CO)N1C(=O)Cc1ccccc1	-45.2
COC(=O)[C@@]1(Cc2ccccc2)N=C(c2ccc(OCCCO)cc2)O[C@H]1c1ccccc1	-34.64
C[C@@H]1CN([C@@H](C)CO)C(=O)c2cc(NS(=O)(=O)c3ccccc3)ccc2O[C@@H](C)CCCCO[C@@H]1CN(C)C(=O)C1CCCCC1	-28.5
O=C(C[C@@H]1CC[C@H]2[C@@H](COC[C@H](O)CN2S(=O)(=O)c2cccc(Cl)c2)O1)Nc1ccc(-c2ccccc2)cc1	-54.22
C[C@@H]1CN([C@H](C)CO)S(=O)(=O)c2ccc(C#CC(C)(C)O)cc2O[C@H]1CN(C)Cc1ccc(-c2ccccc2)cc1	-50.1
COc1ccc(OC(=O)N(C)C[C@H]2OCc3ccccc3-c3c(n(C)c4ccccc34)C(=O)N([C@@H](C)CO)C[C@H]2C)cc1	-45.25
COc1ccc(CN(C)C[C@@H]2OCCCC[C@@H](C)Oc3ccc(NC(=O)NC4CCCCC4)cc3C(=O)N([C@H](C)CO)C[C@H]2C)cc1	-43.41
C[C@@H]1CN([C@@H](C)CO)C(=O)Cc2cc(NC(=O)Nc3ccccc3)ccc2O[C@H]1CN(C)Cc1ccc(Cl)c(Cl)c1	-21.98
CC(=O)N1CCCCN2[C@H](CO)[C@@H](c3ccc(C#Cc4ccccc4F)cc3)[C@H]2C1	-31.79

Some entries from above, unchanged:

C[C@@H]1CN([C@H](C)CO)S(=O)(=O)c2ccc(C#CC(C)(C)O)cc2O[C@H]1CN(C)Cc1ccc(-c2ccccc2)cc1 gave activity change (Venus) -50.1%.
O=C(CN1CCOCC1)N1CCCCN2[C@H](CO)[C@H](c3ccc(C#Cc4ccccc4)cc3)[C@@H]2C1 gave activity change (Venus) -37.37%.
COc1ccc(NC(=O)N2CC(=O)N3[C@H](CO)[C@@H](c4ccc(-c5ccc(C)cc5)cc4)[C@H]3C2)cc1 gave activity change (Venus) -40.5%.
C[C@H]1CN([C@@H](C)CO)C(=O)Cc2cc(NC(=O)NC3CCCCC3)ccc2O[C@H]1CN(C)S(=O)(=O)c1ccc(Cl)cc1 gave activity change (Venus) -39.89%.